No constants are given. Whether binding was seen depends on the method and setting. Some results given as binding are weak or reduced against the parent protein; the word gives no strength.
How the values were obtained:
[1] = molecular target: T1, 重组蛋白人CK-MB (human) (UniProt P06732+P12277); assay: ELISA specificity screen of hybridoma clones; antigens at 1 ug/mL
[2] = molecular target: T1, 重组蛋白人CK-MB (human); assay: lateral-flow sandwich kit made of antibodies B and C, run on clinical samples (native CK-MB)

Sequences of proteins named here, by UniProt entry; tags and fusion partners are left off. A change or cut given only in a name is not applied to a line headed by its entry.
UniProt P06732: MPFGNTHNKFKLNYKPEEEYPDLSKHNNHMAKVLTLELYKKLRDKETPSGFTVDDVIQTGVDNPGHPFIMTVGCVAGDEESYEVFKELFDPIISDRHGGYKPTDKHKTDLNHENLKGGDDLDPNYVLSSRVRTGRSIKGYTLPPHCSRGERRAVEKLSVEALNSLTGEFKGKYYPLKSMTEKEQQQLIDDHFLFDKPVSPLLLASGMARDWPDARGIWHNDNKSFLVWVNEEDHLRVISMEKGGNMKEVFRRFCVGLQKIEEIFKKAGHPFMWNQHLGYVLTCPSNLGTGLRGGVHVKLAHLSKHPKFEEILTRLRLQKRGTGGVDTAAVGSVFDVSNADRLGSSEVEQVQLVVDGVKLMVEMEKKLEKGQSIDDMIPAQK
UniProt P12277: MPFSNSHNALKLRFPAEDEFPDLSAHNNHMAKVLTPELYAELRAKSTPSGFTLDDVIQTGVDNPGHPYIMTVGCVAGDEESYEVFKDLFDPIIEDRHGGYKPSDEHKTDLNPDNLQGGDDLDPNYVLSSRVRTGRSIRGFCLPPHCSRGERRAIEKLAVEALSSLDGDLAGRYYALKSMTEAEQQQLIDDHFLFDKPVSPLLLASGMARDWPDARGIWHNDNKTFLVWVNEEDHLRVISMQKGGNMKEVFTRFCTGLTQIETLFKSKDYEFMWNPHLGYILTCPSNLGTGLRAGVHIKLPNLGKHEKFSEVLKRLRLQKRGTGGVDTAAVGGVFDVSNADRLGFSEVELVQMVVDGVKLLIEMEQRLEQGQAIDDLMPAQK

Row | binding [1] | binding [2] | Binder
1 | binds | binds | 抗体B (antibody, IgG2, V domains shown) VH: QVQLQQSGAELVKPGASVKISCKASGYAFSDYWMNWVKQRPGQGLEWIGQIYPGDGDTNYNGKFKGKATLAADKSSSTVYMQLSSLTSEDSAVYFCARVYPYFTYWGQGTLVTVSA VL: DIVMTQSHKFMSTSVGDRVSITCKASQDVSTAVAWYQQKPGQSPKLLIYSASYRYTGVPDRFTGSGSGTDFTFTISSVQAEDLAVYYCQQHYSSPVTFGAGTKLELK
2 | binds | – | 抗体A (antibody, IgG2, V domains shown) VH: DVQLQESGPGLVKPSQTVSLTCTVTGISITTGSDRWSWIRQFPGNKLEWIGYIYYSGTITYNPSLTSRTTITRDTSKNQFFLEMNSLTAEDTATYYCARERTYYGYGYFDVWGTGTTVTVSS VL: DIQMTQSPSSLSASLGDKVTITCHASQNINVWLSWYQQKPGKAPKLLIYKASDLHTGVSSRFSGSGSGTAFTLTISSLQPEDIATYYCQQGQSYPWTFGGGTKLEIK
